Reference: PMC4772106
Results are given in words; binding and its absence hold for the method and conditions named. In cells and extracts the contact can be indirect. Some entries that bind do so weakly or less than the wild type. Where a sequence is shown, tags or fusion partners need not be part of it.

Sequences of proteins named here, by UniProt entry; tags and fusion partners are left off.
UniProt P14618: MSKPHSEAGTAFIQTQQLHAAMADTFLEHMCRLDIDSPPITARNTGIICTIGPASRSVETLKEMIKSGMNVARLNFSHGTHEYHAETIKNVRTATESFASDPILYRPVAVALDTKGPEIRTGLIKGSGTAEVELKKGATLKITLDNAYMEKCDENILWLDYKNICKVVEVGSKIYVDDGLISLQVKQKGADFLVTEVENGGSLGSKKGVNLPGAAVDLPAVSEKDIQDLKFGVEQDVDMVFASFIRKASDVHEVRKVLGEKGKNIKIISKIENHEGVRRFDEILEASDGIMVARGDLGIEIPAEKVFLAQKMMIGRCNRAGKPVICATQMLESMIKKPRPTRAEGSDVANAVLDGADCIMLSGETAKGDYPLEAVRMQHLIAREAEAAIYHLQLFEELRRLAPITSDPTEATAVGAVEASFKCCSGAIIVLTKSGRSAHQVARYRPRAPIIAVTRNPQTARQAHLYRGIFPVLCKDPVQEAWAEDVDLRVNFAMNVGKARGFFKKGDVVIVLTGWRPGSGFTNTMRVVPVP

B1: GFP-F2 (TTP 51-103 aa) (domain or fragment, UniProt P26651 51-103)
chain: TSRLPGRSTSLVEGRSCGWVPPPPGFAPLAPRLGPELSPSPTSPTATSTTPSR

Each molecule was assayed against Flag-tagged PKM2 (human) (UniProt P14618) (assay: co-IP; Flag-PKM2 co-expressed in HEK293T (legend: HEK293) cells with GFP-tagged TTP fragments; immunoprecipitation followed by immunoblotting).
With “GFP-F3 (TTP 104-173 aa) (from UniProt P26651 104-173) (domain or fragment)” the binding was “binds”.
With “GFP-tagged TTP C-terminal truncation ZnC (103-326 aa) (from UniProt P26651 103-326) (domain or fragment)” the binding was “binds weakly”.
“GFP-tagged TTP N-terminal truncation ZnN (1-173 aa) (from UniProt P26651 1-173) (domain or fragment)” was tested, and the binding was “binds”.
In the case of B1, the binding is reported as “binds”.
